According to PubChem BioAssay AID504648 (National Center for Advancing Translational Sciences (NCATS), 2011):
Among all 390,000 compounds or so, about 610 (0.16%) were called active. The inconclusive results got no clear call from the source; some entries with a clear call stand among them for comparison. Calls follow the shape of the dose curve; as a rule, active = well fitted inhibition curve with a large enough effect; inconclusive = small, poorly fitted or top-dose-only effect, or effect the other way, or another doubt; inactive = no such curve, though single readings can be large or run the other way. Where the call is inconclusive, the potency comes from a doubtful curve fit.
Potency is read from the fitted curve at half-maximal effect.

Test: Nrf2 qHTS screen for inhibitors: counterscreen for cytotoxicity
Conditions: A549 ARE-Fluc cells, CellTiter-Fluor viability, 18-24 h; series mostly up to 46 µM
In short: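 Cytotoxicity counterscreen: CellTiter-Fluor fluorescence was measured in A549 ARE_Fluc cells after 18-24 h of compound exposure in a concentration series. The subsequent BugLite luminescent read reports ARE-luciferase activity.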
For `O=C(NCc1ccco1)c1cc(S(=O)(=O)N2CCOCC2)c(Cl)cc1Cl`, the Potency was inconclusive: 23.1 µM [falling, single point]. For `COc1ccc2c(CNCc3ccco3)c(C(=O)O)n(Cc3cccc(F)c3)c2c1`, the Potency was inconclusive: 25.9 µM [falling, single point]. With `O=C(Cn1cc(S(=O)(=O)Cc2ccccc2F)c2ccccc21)Nc1ccc(F)c(Cl)c1` the Potency was inconclusive: 23.1 µM [falling, partial curve, poor fit]. In the case of `CC(=O)Oc1ccccc1/C=C/c1ccc2ccccc2[n+]1C`, the Potency is reported as inconclusive: 25.9 µM [falling, partial curve, poor fit]. In the case of `O=C(NC(=S)N1CCN(c2ccc([N+](=O)[O-])cc2)CC1)c1ccccc1Cl`, the Potency is reported as inconclusive: 16.4 µM [falling, single point]. For `CC1CN(c2nnc(NC(=O)c3ccccc3)s2)CC(C)O1` (configuration not stated), the Potency was inconclusive: 29.1 µM [falling, single point]. In the case of `CNc1cccc2c1C(=O)c1ccccc1C2=O`, the Potency is reported as inconclusive: 16.4 µM [falling, single point]. For `Cc1cccc(C(=O)Oc2csc(=S)n2C(=O)c2cccc(C)c2)c1`, the Potency was “inactive”. For `Cc1cccc(C)c1OCC(=O)N=Nc1c(O)[nH]c2ccc(Br)cc12`, the Potency was inconclusive: 29.1 µM [falling, single point]. In the case of `O=C1/C(=C\c2ccc(O)c(O)c2)SC(=S)N1Cc1ccccc1`, the Potency is reported as inconclusive: 25.9 µM [falling, single point]. With `C=CCn1c(C)cc(-c2csc(NC(=O)C3CCN(c4ncnc5sc(C)c(C)c45)CC3)n2)c1C` the Potency was “inactive”. In the case of `Cc1ccc(Cl)cc1NS(=O)(=O)c1ccc(-n2cccn2)cc1`, the Potency is reported as inconclusive: 3.66 µM [activator, partial curve, poor fit]. With `Cc1onc(-c2ccccc2)c1C(=O)N/N=C/c1ccc([N+](=O)[O-])s1` the Potency was inconclusive: 29.1 µM [falling, partial curve, poor fit]. With `COC(=O)c1c(NC(=O)C2COc3ccccc3O2)sc2c1CCN(C(C)=O)C2` (configuration not stated) the Potency was inconclusive: 29.1 µM [falling, single point]. In the case of `CN(C)c1ccc([N+](=O)[O-])cc1C(=O)O`, the Potency is reported as inconclusive: 29.1 µM [falling, single point]. For `CC1(C)CC(=O)C=C(C(=O)N2CCCC(C(=O)c3cccc(C(F)(F)F)c3)C2)O1` (configuration not stated), the Potency was inconclusive: 16.4 µM [falling, partial curve]. For `Cc1nn(C)cc1C(=O)Nc1cc(Oc2ccc(Cl)cc2)cc([N+](=O)[O-])c1`, the Potency was inconclusive: 13 µM [falling, single point].
